The supplement of paper PMC12823440, “Inhibitors supercharge kinase turnover through native proteolytic circuits” (Nature, 2025)
Structures can show the parent of a compound that is named as a salt. The list shows a part of the results. Hit calls seldom repeat between salt and free forms of one compound.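 Kinases, fused to nanoluciferase, were expressed in K562 cells; luminescence was measured every 4 h from 2 to 18 h as percent of control (DMSO = 100%, positive control = 0%). A time point is decreased if signal falls significantly (2 sigma). Hits were called by the authors by a rule that is not shown; the count of time points alone does not decide it.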

The chains behind the UniProt entries cited, without tags or fusion partners. Where a name states a change or a piece, a line headed by the entry shows the natural chain unless it says otherwise.
UniProt Q05397, whole entry, looked up: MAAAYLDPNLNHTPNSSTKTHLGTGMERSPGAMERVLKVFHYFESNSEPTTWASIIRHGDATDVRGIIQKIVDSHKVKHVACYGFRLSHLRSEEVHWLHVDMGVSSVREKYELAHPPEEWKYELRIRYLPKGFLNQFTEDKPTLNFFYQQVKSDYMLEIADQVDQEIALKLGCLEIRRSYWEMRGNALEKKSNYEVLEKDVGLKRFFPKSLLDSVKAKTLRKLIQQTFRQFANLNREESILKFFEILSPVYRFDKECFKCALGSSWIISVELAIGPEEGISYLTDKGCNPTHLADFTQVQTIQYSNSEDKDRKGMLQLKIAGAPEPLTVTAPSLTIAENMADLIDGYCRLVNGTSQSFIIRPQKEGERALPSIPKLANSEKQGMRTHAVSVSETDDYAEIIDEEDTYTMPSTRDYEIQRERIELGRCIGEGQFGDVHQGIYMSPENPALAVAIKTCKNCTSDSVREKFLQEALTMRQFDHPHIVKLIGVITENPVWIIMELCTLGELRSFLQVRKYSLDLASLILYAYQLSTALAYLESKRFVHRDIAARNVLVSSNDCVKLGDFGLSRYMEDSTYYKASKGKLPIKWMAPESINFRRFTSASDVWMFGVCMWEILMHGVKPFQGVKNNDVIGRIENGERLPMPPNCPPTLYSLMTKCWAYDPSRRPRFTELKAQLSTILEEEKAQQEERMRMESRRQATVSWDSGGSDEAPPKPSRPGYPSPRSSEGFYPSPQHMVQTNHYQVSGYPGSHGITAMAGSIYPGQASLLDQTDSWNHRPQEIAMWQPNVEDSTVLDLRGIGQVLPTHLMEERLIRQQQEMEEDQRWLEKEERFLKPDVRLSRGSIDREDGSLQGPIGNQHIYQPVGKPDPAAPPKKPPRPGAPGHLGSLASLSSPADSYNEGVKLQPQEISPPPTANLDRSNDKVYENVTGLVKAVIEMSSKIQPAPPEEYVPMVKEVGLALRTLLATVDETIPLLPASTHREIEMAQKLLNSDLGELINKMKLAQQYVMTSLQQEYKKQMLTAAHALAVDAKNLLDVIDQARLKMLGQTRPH
UniProt Q14289, whole entry, looked up: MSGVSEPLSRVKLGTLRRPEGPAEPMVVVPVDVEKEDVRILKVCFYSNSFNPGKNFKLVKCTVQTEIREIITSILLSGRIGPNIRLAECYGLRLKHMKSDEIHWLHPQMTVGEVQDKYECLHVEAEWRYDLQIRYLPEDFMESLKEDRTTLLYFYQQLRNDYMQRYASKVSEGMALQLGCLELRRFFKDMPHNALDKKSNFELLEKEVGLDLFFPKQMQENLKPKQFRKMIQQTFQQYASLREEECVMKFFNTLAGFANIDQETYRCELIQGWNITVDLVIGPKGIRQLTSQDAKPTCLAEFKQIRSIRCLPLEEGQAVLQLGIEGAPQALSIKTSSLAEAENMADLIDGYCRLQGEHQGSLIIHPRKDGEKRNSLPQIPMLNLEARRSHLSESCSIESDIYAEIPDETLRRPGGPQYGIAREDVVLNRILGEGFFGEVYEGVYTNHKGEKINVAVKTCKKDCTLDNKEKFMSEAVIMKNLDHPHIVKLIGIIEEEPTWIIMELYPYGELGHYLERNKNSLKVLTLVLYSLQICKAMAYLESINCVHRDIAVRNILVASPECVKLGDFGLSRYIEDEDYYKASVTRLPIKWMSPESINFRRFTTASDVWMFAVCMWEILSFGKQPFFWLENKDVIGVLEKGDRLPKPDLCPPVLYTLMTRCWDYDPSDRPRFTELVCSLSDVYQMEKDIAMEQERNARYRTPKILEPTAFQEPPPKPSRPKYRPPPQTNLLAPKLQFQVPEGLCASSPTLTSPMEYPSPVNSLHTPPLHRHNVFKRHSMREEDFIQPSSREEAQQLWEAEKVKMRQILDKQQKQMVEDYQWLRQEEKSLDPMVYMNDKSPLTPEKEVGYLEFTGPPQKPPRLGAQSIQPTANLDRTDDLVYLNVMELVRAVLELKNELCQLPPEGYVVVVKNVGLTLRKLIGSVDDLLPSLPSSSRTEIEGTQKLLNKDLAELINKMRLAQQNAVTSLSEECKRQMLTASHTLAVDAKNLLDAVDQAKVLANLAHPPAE
UniProt Q9BRS2: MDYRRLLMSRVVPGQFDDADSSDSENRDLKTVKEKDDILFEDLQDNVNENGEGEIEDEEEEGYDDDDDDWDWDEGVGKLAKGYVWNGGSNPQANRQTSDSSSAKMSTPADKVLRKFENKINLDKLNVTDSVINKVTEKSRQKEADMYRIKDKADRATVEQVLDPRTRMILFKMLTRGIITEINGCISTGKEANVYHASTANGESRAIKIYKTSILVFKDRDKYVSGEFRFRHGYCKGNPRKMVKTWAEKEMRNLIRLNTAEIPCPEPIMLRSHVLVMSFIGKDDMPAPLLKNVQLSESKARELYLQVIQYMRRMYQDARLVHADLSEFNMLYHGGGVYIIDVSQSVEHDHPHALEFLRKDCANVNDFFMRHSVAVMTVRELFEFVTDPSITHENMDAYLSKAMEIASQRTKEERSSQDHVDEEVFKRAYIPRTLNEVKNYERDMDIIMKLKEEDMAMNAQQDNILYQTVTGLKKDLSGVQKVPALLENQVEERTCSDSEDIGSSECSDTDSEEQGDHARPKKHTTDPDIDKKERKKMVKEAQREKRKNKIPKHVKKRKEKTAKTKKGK
UniProt Q01974, whole entry: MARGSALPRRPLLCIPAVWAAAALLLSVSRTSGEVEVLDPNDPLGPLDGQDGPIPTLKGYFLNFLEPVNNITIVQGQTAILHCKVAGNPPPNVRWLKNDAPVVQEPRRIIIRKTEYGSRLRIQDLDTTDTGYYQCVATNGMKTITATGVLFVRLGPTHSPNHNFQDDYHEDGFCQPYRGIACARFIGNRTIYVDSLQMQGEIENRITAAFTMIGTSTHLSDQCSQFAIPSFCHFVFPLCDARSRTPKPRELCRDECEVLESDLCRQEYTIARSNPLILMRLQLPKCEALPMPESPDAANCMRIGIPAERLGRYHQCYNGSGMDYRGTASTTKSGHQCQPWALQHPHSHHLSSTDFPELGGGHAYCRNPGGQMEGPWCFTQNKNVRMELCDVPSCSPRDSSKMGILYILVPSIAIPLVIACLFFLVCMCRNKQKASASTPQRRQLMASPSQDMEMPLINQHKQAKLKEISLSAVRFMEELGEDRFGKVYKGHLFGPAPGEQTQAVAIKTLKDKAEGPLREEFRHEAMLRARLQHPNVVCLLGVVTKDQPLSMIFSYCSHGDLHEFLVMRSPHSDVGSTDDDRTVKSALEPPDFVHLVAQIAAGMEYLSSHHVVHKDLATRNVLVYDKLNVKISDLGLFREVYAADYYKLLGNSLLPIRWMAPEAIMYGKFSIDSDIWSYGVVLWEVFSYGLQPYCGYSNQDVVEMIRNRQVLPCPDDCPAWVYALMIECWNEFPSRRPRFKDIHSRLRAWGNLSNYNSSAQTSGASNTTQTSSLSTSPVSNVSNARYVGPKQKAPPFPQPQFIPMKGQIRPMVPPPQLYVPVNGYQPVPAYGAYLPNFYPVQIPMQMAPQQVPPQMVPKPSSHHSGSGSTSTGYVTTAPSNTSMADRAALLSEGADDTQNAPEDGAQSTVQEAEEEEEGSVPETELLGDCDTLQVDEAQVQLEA
UniProt Q15418, whole entry: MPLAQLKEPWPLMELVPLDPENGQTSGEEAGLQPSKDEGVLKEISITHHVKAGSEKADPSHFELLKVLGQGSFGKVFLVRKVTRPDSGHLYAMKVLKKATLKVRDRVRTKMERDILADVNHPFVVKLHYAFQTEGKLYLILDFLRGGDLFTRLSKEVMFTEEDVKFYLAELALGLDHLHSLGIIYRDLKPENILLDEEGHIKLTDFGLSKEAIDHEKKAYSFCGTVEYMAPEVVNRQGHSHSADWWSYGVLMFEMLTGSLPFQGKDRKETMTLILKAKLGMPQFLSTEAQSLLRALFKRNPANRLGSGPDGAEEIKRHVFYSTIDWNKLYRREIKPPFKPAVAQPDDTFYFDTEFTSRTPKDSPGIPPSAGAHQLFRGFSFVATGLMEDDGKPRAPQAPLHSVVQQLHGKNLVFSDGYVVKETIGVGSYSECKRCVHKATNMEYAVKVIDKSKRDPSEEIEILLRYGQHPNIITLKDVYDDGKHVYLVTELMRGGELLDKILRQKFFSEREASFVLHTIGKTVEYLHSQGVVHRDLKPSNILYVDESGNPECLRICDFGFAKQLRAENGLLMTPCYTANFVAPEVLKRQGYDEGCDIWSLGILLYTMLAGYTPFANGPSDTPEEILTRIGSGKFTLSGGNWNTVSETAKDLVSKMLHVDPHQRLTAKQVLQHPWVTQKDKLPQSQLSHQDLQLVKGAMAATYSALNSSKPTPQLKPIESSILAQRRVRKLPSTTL
UniProt Q9NYA1, whole entry: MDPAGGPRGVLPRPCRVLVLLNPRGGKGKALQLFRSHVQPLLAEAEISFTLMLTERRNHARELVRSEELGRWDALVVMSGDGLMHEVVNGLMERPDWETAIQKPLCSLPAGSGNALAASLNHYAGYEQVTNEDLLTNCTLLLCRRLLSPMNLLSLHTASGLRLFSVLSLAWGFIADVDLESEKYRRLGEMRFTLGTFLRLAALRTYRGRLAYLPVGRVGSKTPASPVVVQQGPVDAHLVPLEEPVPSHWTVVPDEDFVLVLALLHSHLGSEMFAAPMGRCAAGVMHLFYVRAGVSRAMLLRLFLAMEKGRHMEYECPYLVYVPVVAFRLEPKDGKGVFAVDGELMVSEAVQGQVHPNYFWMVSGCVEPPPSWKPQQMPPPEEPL
UniProt Q9Y6E0: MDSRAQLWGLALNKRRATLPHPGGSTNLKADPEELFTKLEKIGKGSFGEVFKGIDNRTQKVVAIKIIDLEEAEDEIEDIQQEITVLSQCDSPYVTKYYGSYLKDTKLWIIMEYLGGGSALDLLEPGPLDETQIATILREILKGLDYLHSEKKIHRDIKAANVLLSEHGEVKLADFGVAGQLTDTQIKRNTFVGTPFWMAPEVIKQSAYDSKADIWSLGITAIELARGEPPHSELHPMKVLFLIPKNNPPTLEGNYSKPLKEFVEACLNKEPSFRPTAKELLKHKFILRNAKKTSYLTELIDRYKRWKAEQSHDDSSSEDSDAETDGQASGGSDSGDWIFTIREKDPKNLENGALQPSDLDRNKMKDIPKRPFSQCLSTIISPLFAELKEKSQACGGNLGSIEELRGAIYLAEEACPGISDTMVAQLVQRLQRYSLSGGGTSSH
UniProt Q6PHR2: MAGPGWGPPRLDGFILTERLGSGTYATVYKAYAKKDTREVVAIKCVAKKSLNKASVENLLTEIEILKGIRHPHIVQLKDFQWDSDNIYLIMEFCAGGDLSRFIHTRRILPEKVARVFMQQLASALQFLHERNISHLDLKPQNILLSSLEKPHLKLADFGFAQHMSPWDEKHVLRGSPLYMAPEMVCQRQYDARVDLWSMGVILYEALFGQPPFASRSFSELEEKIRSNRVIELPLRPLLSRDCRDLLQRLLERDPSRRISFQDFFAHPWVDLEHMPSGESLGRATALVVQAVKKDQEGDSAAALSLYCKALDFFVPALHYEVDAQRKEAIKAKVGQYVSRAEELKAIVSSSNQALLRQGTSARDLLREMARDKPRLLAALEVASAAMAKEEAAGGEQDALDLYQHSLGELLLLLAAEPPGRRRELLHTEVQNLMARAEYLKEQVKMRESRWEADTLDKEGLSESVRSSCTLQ

Columns and labels:
Experiment in all cases: number of time points (of 5) at which kinase-Nluc abundance scored as decreased, DMSO-normalised (count); higher = more persistent destabilization
Conditions in all cases: K562; 2-18 h
[1] = biological target: PRKCA (UniProt P17252)
[2] = biological target: PTK2 (UniProt Q05397)
[3] = biological target: PTK2B (UniProt Q14289)
[4] = biological target: RAF1 (UniProt P04049)
[5] = biological target: RAF1_S257L (clone: RAF1_mut) (UniProt P04049)
[6] = biological target: RET (UniProt P07949)
[7] = biological target: RET_M918T (clone: RET_mut) (UniProt P07949)
[8] = biological target: RIOK1 (UniProt Q9BRS2)
[9] = biological target: RIPK1 (UniProt Q13546)
[10] = biological target: RIPK2 (UniProt O43353)
[11] = biological target: ROR2 (UniProt Q01974)
[12] = biological target: RPS6KA1 (UniProt Q15418)
[13] = biological target: SPHK1 (UniProt Q9NYA1)
[14] = biological target: SRC (UniProt P12931)
[15] = biological target: STK24 (UniProt Q9Y6E0)
[16] = biological target: STK38 (UniProt Q15208)
[17] = biological target: SYK (UniProt P43405)
[18] = biological target: TEC (UniProt P42680)
[19] = biological target: TYK2 (UniProt P29597)
[20] = biological target: ULK3 (UniProt Q6PHR2)

| SMILES | number of time points [1] | number of time points [2] | number of time points [3] | number of time points [4] | number of time points [5] | number of time points [6] | number of time points [7] | number of time points [8] | number of time points [9] | number of time points [10] | number of time points [11] | number of time points [12] | number of time points [13] | number of time points [14] | number of time points [15] | number of time points [16] | number of time points [17] | number of time points [18] | number of time points [19] | number of time points [20] |
| --- | --- | --- | --- | --- | --- | --- | --- | --- | --- | --- | --- | --- | --- | --- | --- | --- | --- | --- | --- | --- |
| Cn1nc(C(C)(C)C)cc1NC(=O)Nc1ccc(Oc2ccncc2)cc1 (10 µM) | 0 | 0 | 0 | 2 | 2 | 0 | 0 | 2 | 0 | 2 | 0 | 0 | 0 | 0 | 0 | 0 | 0 | 0 | 0 | 4 |
| C[C@H](NC(=O)/C(C#N)=C/c1cccc(Br)n1)c1ccccc1 (2.5 µM) | 0 | 3 | 0 | 0 | 0 | 0 | 0 | 0 | 2 | 0 | 0 | 0 | 0 | 0 | 0 | 0 | 0 | 0 | 0 | 0 |
| CCCCOc1c(C(=O)c2c(F)cc(C)cc2F)c[nH]c2nncc1-2 (10 µM) | 0 | 0 | 0 | 0 | 0 | 0 | 0 | 0 | 0 | 0 | 0 | 0 | 0 | 0 | 0 | 0 | 0 | 0 | 0 | 0 |
| Cn1c(=O)n(-c2ccc(C(C)(C)C#N)cc2)c2c3cc(-c4cnc5ccccc5c4)ccc3ncc21 [Dactolisib (Tosylate)] (10 µM) | 0 | 2 | 2 | 3 | 0 | 4 | 5 | 0 | 2 | 1 | 0 | 0 | 0 | 0 | 0 | 1 | 0 | 1 | 4 | 3 |
| COc1cc2c(Nc3ccc(Br)cc3F)ncnc2cc1OCCn1ccnn1 (10 µM) | 0 | 0 | 0 | 0 | 0 | 0 | 0 | 0 | 0 | 0 | 0 | 0 | 0 | 0 | 0 | 0 | 0 | 0 | 0 | 0 |
| Cc1cccc(Cn2nc(C3CC3)c3c(NC(=O)c4cnc5cc(OCCN6CCN(C)CC6)ccn45)cccc32)n1 (10 µM) | 0 | 0 | 0 | 0 | 0 | 0 | 0 | 0 | 0 | 0 | 0 | 0 | 0 | 0 | 0 | 0 | 0 | 0 | 0 | 0 |
| CC(C)c1ccc2oc3nc(N)c(C(=O)O)cc3c(=O)c2c1 [Amlexanox] (10 µM) | 0 | 0 | 0 | 0 | 0 | 0 | 0 | 0 | 0 | 0 | 0 | 0 | 0 | 0 | 0 | 0 | 0 | 0 | 0 | 0 |
| COc1ccc(COc2ccc(Cc3cnc(N)nc3N)cc2OC)cc1 (10 µM) | 0 | 0 | 0 | 0 | 0 | 0 | 0 | 0 | 0 | 0 | 0 | 0 | 0 | 0 | 0 | 0 | 0 | 0 | 0 | 0 |
| COc1c(Cl)cc2c([nH]c3cnccc32)c1NC(=O)c1cccnc1C (10 µM) | 0 | 0 | 0 | 0 | 0 | 0 | 0 | 0 | 0 | 0 | 0 | 0 | 0 | 0 | 0 | 0 | 0 | 0 | 0 | 0 |
| O=C1NCCc2[nH]c(-c3ccnc(-c4cnc5ccccc5c4)c3)cc21 (10 µM) | 0 | 0 | 0 | 0 | 0 | 0 | 0 | 0 | 0 | 0 | 0 | 0 | 0 | 0 | 0 | 0 | 0 | 0 | 0 | 0 |
| CCn1c(=O)c2cc(C(N)=O)c(N)nc2n(C2CC2)c1=O (10 µM) | 0 | 0 | 0 | 0 | 0 | 0 | 0 | 0 | 0 | 0 | 0 | 0 | 0 | 0 | 0 | 0 | 0 | 0 | 0 | 0 |
| O=c1oc2c(O)c(O)cc3c(=O)oc4c(O)c(O)cc1c4c23 [Ellagic acid] (10 µM) | 0 | 0 | 0 | 0 | 0 | 0 | 0 | 0 | 0 | 0 | 0 | 0 | 0 | 0 | 0 | 0 | 0 | 0 | 0 | 0 |
| Nc1ncnc2c1c(-c1ccc(Oc3ccccc3)cc1)cn2C1CCCC1 (2.5 µM) | 0 | 0 | 4 | 0 | 0 | 0 | 0 | 0 | 0 | 0 | 0 | 0 | 0 | 0 | 0 | 0 | 0 | 1 | 0 | 0 |
| CN1CCN(S(=O)(=O)c2ccc(-c3cnc(N)c(C(=O)Nc4cccnc4)n3)cc2)CC1 (10 µM) | 0 | 0 | 0 | 0 | 0 | 0 | 0 | 0 | 0 | 0 | 0 | 0 | 0 | 0 | 0 | 0 | 0 | 0 | 0 | 0 |
| CCC(=O)N1CCN(c2ccc(-n3c(=O)ccc4cnc5ccc(-c6cnc7ccccc7c6)cc5c43)cc2C(F)(F)F)CC1 [Torin 1] (2 µM) | 0 | 1 | 0 | 0 | 0 | 4 | 3 | 0 | 3 | 0 | 0 | 0 | 0 | 0 | 0 | 1 | 0 | 0 | 4 | 0 |
| CN1CCN(C(=O)c2ccc(-c3ccc4c(C=O)c(O)ccc4c3)s2)CC1 (2.5 µM) | 0 | 0 | 0 | 0 | 0 | 0 | 0 | 0 | 0 | 0 | 0 | 0 | 0 | 0 | 0 | 0 | 0 | 0 | 0 | 0 |
| COc1cc2ncnc(Nc3cccc(O)c3)c2cc1OC (10 µM) | 0 | 3 | 1 | 2 | 5 | 2 | 1 | 2 | 3 | 4 | 0 | 0 | 0 | 0 | 0 | 1 | 0 | 2 | 3 | 4 |
| COc1cc(C=C(C#N)C(N)=O)cc(CSc2nc3ccccc3s2)c1O (10 µM) | 0 | 0 | 0 | 0 | 0 | 0 | 0 | 0 | 0 | 0 | 0 | 0 | 0 | 0 | 0 | 0 | 0 | 0 | 0 | 0 |
| COc1cc2ncn(-c3cc(OCc4ccccc4C(F)(F)F)c(C(N)=O)s3)c2cc1OC (10 µM) | 0 | 4 | 0 | 0 | 0 | 0 | 0 | 0 | 0 | 0 | 0 | 0 | 0 | 0 | 0 | 0 | 0 | 0 | 1 | 0 |
| Cc1ccc(F)c(NC(=O)Nc2ccc(-c3cccc4[nH]nc(N)c34)cc2)c1 [Linifanib] (2.5 µM) | 0 | 5 | 0 | 0 | 0 | 0 | 1 | 1 | 0 | 0 | 0 | 0 | 0 | 0 | 0 | 0 | 0 | 0 | 5 | 0 |
| N#Cc1ccc2[nH]c(O)c(-c3ccc(CN4CCOCC4)cn3)c2c1 (10 µM) | 0 | 0 | 0 | 0 | 0 | 0 | 0 | 0 | 0 | 0 | 0 | 0 | 0 | 0 | 0 | 0 | 0 | 0 | 0 | 0 |
| Cc1c[nH]c2ccccc12 [Skatole] (10 µM) | 0 | 0 | 0 | 0 | 0 | 0 | 0 | 0 | 0 | 0 | 0 | 0 | 0 | 0 | 0 | 0 | 0 | 0 | 0 | 0 |
| COc1ccc(NC(=O)N2CCN(c3nc(N)nc4c3cnn4C)[C@@H](C)C2)c(C)c1 (10 µM) | 0 | 0 | 0 | 0 | 0 | 0 | 0 | 0 | 0 | 0 | 0 | 0 | 0 | 0 | 0 | 0 | 0 | 0 | 0 | 0 |
| c1cc(OCCN2CCCCC2)cc(-c2n[nH]c3ccc(-c4nnc[nH]4)cc23)c1 [CC-401 (hydrochloride)] (10 µM) | 0 | 0 | 0 | 0 | 0 | 0 | 0 | 0 | 0 | 0 | 0 | 0 | 0 | 0 | 0 | 0 | 0 | 0 | 0 | 0 |
| CC(C)(C)S(=O)(=O)c1cc2c(Nc3ccc4scnc4c3)ncnc2cc1OCCO (2.5 µM) | 0 | 0 | 0 | 0 | 0 | 0 | 0 | 0 | 0 | 4 | 0 | 0 | 0 | 0 | 0 | 0 | 0 | 0 | 0 | 0 |

An excerpt from above in order of count of non-hydrogen atoms, descending.

| SMILES | number of time points [1] | number of time points [2] | number of time points [3] | number of time points [4] | number of time points [5] | number of time points [6] | number of time points [7] | number of time points [8] | number of time points [9] | number of time points [10] | number of time points [11] | number of time points [12] | number of time points [13] | number of time points [14] | number of time points [15] | number of time points [16] | number of time points [17] | number of time points [18] | number of time points [19] | number of time points [20] |
| --- | --- | --- | --- | --- | --- | --- | --- | --- | --- | --- | --- | --- | --- | --- | --- | --- | --- | --- | --- | --- |
| COc1cc2c(Nc3ccc(Br)cc3F)ncnc2cc1OCCn1ccnn1 (10 µM) | 0 | 0 | 0 | 0 | 0 | 0 | 0 | 0 | 0 | 0 | 0 | 0 | 0 | 0 | 0 | 0 | 0 | 0 | 0 | 0 |
| Nc1ncnc2c1c(-c1ccc(Oc3ccccc3)cc1)cn2C1CCCC1 (2.5 µM) | 0 | 0 | 4 | 0 | 0 | 0 | 0 | 0 | 0 | 0 | 0 | 0 | 0 | 0 | 0 | 0 | 0 | 1 | 0 | 0 |
| C[C@H](NC(=O)/C(C#N)=C/c1cccc(Br)n1)c1ccccc1 (2.5 µM) | 0 | 3 | 0 | 0 | 0 | 0 | 0 | 0 | 2 | 0 | 0 | 0 | 0 | 0 | 0 | 0 | 0 | 0 | 0 | 0 |
